Drawing on paper doi:10.1101/2021.12.01.470705 (bioRxiv, 2021), this text covers binding for 1 molecule.

No constants are given. Whether binding was seen depends on the method and setting.

In the assay the target is WWOX tandem WW1-WW2 domains (amino acid 16-91) (human) (UniProt Q9NZC7). The experiment in a line: SEC-MALS.

B1: WWOX tandem WW1-WW2 domains (amino acid 16-91) (domain or fragment, UniProt Q9NZC7 16-91)
chain: DELPPGWEERTTKDGWVYYANHTEEKTQWEHPKTGKRKRVAGDLPYGWEQETDENGQVFFVDHINKRTTYLDPRLA
On to B1, for which the binding entry is given as “no binding”.
